These are yes or no findings as the source states them, for the method shown. For some assays here: Binding seen in cells or lysates may run through a third protein. Where a sequence is shown, tags or fusion partners need not be part of it.

By UniProt entry, the sequences of proteins in these tests, tags left out. Where a name states a change or a piece, a line headed by the entry shows the natural chain unless it says otherwise.
UniProt Q9H3S7: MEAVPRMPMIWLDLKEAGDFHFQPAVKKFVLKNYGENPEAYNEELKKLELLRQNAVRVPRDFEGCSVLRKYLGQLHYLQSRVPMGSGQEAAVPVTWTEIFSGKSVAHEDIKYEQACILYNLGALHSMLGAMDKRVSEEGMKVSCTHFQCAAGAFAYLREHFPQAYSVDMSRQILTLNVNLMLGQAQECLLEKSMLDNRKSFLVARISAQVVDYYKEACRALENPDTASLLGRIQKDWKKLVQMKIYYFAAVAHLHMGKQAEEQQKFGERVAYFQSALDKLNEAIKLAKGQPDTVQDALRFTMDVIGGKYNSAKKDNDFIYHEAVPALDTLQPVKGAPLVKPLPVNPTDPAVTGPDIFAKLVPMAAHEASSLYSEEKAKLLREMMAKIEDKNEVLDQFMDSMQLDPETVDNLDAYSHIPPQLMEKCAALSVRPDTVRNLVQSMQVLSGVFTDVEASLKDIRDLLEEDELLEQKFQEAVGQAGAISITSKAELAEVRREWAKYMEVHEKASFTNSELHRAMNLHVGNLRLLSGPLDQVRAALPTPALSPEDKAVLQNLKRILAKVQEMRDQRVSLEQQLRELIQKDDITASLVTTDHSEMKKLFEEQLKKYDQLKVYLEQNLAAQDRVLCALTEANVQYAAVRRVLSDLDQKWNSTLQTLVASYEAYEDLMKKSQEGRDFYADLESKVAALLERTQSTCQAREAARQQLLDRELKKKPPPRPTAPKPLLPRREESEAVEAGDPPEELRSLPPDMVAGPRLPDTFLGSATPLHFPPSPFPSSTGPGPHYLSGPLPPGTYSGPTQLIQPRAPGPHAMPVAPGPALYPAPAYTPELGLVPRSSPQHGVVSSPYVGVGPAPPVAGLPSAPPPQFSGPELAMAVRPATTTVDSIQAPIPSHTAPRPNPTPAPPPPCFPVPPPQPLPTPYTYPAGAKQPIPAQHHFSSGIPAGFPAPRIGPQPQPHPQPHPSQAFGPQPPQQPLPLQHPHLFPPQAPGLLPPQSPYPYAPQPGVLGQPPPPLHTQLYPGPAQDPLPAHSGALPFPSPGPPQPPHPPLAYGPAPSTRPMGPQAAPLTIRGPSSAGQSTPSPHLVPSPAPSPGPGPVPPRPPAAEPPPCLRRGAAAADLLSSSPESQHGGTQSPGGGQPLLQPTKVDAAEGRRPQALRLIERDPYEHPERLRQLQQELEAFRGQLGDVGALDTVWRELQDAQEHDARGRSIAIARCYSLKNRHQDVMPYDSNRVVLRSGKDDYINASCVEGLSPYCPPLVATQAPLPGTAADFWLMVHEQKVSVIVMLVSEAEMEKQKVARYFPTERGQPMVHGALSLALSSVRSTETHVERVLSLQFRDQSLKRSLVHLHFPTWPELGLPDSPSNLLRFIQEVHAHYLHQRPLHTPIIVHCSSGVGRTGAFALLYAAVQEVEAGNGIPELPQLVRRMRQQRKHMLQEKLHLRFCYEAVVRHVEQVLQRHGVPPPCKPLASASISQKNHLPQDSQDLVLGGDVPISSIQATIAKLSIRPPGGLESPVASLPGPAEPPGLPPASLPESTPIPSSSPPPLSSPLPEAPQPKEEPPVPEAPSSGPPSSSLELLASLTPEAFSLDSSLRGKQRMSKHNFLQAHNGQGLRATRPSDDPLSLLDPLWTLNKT

Our source for the binding values is PMC3002266.

For one assay, the target named is T1, GST-GrpL (UniProt O75791).
T1 sequence: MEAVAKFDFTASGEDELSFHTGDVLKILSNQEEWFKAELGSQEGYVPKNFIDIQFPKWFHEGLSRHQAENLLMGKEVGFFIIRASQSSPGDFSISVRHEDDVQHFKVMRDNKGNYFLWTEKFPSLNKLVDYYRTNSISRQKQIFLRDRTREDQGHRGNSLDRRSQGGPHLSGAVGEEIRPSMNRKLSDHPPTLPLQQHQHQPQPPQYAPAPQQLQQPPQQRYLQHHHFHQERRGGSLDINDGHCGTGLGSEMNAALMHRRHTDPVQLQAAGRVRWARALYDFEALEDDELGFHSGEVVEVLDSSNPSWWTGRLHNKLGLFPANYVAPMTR
Briefly: pull-down; GST, GST-Grb2 or GST-GrpL pre-adsorbed to glutathione-Sepharose beads, incubated 1 h at 4°C with lysates of transfected HEK293T cells (NP-40 lysis buffer, 150 mM NaCl, pH 8.0); five washes; Western blot with anti-GFP; only the target purified.

The target of assay [1] is EGFP-ΔHD (1-704 joined to 1221-1636 by Glu-Phe) (human) (UniProt Q9H3S7). In words: far-Western, overlay or dot blot; lysates of HEK293T cells expressing HD-PTP mutants separated by SDS-PAGE and blotted on PVDF; overlay with 50 ng/ml GST-Grb2 or 100 ng/ml GST-GrpL overnight at 4°C; detected with anti-GST; only the binder purified.

Take “EGFP-ΔHD (1-704 joined to 1221-1636 by Glu-Phe) (from UniProt Q9H3S7) (domain or fragment)”: in the assay with GST-GrpL, the binding result is given as “no binding”.

B1: GST-GrpL (protein, UniProt O75791 1-330)
chain: MEAVAKFDFTASGEDELSFHTGDVLKILSNQEEWFKAELGSQEGYVPKNFIDIQFPKWFHEGLSRHQAENLLMGKEVGFFIIRASQSSPGDFSISVRHEDDVQHFKVMRDNKGNYFLWTEKFPSLNKLVDYYRTNSISRQKQIFLRDRTREDQGHRGNSLDRRSQGGPHLSGAVGEEIRPSMNRKLSDHPPTLPLQQHQHQPQPPQYAPAPQQLQQPPQQRYLQHHHFHQERRGGSLDINDGHCGTGLGSEMNAALMHRRHTDPVQLQAAGRVRWARALYDFEALEDDELGFHSGEVVEVLDSSNPSWWTGRLHNKLGLFPANYVAPMTR
B1: the binding result in assay [1] is given as “no binding (tested: 100 ng/ml GST-GrpL)”.
